The supplement of paper PMC10849652
This is one part of the list.

Protein sequences, listed by entry. Tags and fused reporters are not part of them. Lines headed by an entry give the natural chain unless they say otherwise; changes in a name come on top.
UniProt P84095: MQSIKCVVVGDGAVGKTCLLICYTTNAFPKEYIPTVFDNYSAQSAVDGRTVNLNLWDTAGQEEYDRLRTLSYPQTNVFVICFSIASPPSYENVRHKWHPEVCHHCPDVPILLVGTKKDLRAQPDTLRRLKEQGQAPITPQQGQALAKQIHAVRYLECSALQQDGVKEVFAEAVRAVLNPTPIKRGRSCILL
UniProt Q9H871: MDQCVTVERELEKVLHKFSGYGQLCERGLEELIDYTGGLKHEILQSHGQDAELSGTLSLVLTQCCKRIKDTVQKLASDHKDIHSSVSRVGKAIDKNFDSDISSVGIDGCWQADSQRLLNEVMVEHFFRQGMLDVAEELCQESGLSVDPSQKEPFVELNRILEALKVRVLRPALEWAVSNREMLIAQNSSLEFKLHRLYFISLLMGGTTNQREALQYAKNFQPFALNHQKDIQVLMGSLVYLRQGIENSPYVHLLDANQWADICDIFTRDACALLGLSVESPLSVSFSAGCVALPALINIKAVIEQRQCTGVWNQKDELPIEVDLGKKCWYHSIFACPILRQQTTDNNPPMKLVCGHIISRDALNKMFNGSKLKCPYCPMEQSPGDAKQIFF
UniProt Q8IXW5, whole entry, looked up: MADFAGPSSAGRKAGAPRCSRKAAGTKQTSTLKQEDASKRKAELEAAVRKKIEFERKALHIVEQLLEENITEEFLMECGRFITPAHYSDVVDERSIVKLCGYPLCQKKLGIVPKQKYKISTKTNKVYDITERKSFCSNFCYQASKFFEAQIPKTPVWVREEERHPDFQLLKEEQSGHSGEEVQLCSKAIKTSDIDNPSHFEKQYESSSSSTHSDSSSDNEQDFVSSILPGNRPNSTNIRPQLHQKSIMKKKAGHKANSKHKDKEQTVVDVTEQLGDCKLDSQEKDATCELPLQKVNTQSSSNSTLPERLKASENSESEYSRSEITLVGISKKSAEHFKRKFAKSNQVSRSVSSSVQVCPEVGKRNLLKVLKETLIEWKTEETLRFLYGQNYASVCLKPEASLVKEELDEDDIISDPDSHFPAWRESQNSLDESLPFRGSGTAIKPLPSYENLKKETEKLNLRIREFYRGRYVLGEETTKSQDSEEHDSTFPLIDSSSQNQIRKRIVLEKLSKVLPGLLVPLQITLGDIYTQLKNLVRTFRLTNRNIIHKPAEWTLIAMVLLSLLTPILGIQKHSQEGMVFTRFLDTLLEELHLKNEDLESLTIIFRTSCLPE
UniProt Q5M7Z0: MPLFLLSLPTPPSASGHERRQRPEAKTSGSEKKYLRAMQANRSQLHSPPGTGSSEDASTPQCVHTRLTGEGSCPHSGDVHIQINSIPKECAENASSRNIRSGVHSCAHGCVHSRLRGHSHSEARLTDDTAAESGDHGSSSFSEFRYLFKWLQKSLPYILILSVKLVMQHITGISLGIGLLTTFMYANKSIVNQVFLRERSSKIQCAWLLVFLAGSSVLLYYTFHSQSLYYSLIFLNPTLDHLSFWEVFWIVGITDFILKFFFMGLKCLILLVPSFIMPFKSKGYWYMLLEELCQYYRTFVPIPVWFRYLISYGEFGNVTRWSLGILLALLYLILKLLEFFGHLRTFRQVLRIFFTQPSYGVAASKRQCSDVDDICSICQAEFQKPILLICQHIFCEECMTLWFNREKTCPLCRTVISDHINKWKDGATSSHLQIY
UniProt Q7L0Q8: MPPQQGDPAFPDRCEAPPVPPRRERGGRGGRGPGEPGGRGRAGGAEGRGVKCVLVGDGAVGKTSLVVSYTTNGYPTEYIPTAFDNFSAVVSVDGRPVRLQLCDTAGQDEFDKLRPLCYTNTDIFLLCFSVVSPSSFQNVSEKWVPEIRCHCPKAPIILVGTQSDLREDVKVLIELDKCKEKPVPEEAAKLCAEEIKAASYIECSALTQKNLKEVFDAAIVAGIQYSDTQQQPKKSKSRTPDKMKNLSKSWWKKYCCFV
UniProt O43148, whole entry, looked up: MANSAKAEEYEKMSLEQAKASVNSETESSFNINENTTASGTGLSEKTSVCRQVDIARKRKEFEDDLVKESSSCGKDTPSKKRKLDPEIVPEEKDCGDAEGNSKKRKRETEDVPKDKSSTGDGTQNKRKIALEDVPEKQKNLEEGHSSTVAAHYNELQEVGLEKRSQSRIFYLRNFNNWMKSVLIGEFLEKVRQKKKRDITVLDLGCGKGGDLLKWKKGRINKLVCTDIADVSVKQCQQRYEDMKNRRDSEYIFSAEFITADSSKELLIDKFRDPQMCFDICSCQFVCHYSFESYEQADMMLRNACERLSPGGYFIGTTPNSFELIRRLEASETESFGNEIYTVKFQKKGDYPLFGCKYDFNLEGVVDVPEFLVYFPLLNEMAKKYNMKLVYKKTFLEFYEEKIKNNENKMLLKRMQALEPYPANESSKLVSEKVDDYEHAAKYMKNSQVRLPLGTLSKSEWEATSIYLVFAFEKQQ
UniProt Q5EBL4: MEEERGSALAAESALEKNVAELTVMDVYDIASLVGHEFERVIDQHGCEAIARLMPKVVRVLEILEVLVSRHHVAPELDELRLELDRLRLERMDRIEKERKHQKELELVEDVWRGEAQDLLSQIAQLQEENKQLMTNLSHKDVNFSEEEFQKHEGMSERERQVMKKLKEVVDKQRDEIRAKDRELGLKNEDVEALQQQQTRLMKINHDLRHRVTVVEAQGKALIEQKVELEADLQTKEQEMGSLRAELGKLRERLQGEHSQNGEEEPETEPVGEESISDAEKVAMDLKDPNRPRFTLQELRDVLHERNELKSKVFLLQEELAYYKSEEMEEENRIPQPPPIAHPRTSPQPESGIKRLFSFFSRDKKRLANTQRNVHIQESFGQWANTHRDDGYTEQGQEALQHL
UniProt Q5VTB9: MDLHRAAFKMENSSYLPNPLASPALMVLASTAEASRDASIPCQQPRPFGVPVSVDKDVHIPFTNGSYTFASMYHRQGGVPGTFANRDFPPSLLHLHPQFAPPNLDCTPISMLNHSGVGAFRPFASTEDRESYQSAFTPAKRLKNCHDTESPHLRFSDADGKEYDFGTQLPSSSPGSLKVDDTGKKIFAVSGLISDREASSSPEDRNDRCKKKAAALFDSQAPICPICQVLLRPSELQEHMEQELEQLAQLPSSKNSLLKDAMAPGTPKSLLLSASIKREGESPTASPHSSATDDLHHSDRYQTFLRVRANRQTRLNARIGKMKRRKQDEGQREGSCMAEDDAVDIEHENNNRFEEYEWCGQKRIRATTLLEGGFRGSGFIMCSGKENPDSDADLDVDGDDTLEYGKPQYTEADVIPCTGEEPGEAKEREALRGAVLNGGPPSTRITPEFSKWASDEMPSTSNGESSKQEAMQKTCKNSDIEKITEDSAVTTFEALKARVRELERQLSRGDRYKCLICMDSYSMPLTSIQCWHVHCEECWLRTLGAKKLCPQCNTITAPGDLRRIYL
UniProt Q5VTR2, whole entry, looked up: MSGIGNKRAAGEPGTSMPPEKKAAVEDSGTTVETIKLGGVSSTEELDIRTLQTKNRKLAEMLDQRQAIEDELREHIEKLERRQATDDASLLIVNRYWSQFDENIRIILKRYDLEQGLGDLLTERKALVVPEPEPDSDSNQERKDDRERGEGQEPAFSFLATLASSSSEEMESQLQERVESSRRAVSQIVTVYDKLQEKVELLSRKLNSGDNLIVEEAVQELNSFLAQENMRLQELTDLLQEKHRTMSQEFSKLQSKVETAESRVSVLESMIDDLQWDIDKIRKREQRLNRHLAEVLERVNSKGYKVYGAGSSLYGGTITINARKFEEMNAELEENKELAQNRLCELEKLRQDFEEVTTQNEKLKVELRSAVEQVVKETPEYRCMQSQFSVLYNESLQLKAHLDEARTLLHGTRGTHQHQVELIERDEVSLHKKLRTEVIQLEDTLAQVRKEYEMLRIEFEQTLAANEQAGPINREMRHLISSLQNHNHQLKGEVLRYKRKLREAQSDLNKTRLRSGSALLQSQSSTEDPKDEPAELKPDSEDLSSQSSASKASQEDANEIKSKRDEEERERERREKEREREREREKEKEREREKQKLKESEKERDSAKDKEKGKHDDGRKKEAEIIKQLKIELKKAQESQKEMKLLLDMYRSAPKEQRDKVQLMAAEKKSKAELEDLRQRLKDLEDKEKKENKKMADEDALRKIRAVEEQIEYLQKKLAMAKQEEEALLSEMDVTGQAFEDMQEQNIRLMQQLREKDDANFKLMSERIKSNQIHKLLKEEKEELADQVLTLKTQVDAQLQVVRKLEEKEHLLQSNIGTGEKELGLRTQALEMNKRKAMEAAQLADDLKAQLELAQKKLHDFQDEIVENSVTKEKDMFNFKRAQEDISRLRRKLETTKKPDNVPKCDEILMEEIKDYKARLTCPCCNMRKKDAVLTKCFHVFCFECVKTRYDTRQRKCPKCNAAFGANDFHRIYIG
UniProt Q6R327, whole entry, looked up: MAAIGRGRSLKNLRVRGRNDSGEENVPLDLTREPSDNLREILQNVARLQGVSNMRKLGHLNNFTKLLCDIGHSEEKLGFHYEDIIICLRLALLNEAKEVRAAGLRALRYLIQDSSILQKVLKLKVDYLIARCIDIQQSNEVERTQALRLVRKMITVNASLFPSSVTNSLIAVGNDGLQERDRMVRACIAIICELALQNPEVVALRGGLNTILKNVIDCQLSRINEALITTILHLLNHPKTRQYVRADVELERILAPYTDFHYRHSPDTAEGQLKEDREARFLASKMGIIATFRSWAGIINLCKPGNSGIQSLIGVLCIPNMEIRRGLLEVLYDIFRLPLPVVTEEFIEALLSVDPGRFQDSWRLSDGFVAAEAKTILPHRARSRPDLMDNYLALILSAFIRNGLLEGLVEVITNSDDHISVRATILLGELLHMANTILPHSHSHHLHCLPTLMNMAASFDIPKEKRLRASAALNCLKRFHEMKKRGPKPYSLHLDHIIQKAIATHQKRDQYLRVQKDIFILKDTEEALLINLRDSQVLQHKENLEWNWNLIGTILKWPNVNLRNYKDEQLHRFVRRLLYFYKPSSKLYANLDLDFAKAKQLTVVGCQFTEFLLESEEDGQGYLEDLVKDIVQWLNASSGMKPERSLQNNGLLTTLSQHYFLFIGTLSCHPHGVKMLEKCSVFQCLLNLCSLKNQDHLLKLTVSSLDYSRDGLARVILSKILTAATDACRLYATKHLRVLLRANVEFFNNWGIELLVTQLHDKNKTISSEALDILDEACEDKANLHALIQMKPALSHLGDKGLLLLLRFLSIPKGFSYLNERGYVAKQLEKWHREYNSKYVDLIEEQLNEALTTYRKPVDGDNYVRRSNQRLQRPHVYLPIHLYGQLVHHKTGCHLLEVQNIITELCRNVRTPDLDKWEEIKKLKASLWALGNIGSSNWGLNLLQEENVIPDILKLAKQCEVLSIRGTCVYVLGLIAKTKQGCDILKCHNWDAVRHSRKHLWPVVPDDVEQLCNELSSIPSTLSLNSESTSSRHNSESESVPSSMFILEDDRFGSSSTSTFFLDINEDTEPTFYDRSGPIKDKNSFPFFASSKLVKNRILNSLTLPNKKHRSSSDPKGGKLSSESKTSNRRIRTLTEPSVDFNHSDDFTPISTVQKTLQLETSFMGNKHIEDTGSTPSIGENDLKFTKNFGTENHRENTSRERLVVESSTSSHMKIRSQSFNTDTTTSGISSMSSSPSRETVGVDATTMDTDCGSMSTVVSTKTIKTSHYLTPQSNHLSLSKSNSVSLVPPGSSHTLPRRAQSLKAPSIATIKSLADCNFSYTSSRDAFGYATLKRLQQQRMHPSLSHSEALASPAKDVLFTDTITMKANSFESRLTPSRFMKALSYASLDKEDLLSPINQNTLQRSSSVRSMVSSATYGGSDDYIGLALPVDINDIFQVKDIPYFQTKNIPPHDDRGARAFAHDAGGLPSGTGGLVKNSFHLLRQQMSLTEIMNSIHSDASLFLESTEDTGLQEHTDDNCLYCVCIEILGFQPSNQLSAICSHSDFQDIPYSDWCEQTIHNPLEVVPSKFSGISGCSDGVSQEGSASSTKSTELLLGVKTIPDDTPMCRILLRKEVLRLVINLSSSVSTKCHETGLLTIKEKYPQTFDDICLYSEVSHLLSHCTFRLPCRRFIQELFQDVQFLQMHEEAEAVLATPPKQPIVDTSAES
UniProt Q9NPQ8: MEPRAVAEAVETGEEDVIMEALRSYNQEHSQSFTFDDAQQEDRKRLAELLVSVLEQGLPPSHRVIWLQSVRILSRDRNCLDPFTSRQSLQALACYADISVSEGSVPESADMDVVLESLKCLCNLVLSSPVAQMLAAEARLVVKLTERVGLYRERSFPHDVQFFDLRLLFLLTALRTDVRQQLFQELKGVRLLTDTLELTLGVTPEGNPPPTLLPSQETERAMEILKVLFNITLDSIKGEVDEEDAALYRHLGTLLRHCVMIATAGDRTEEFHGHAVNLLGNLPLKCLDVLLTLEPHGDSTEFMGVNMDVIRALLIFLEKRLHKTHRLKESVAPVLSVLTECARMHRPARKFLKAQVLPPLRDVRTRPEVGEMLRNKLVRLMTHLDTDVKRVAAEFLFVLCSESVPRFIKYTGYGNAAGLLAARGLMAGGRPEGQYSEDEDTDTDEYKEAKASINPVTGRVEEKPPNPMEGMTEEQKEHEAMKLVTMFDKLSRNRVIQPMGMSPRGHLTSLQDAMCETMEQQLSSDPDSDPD

Tests used:
Assay in all cases: log2 fold change, soluble protein after heating vs DMSO (PISA); higher = thermal stabilisation; K562 lysate, 10 uM; active = over 0.2 and 3.5 SD of the protein, either way, in both replicates (recomputed)
alvocidib = compound: CN1CC[C@H](c2c(O)cc(O)c3c(=O)cc(-c4ccccc4Cl)oc23)[C@H](O)C1 [alvocidib]
How it was run: (§1)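 K562 pellets were dounce-homogenised in PBS pH 7.4 with 1 mM MgCl2, and the crude extract at 1 mg/mL protein was treated with 10 μM compound for 30 min. Aliquots were heated for 3 min across 48°C-58°C, pooled, and brought to 0.5% NP-40 at 4°C; soluble protein was the supernatant after 21,000xg for 90 min. Soluble protein was quantified by TMTpro 16plex LC-MS/MS with channel sums equalised, and reported as log2 fold change in thermal stability against DMSO controls, with values from duplicates.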

Tubastatin A = compound: CN1CCc2c(c3ccccc3n2Cc2ccc(C(=O)NO)cc2)C1 [Tubastatin A]
How it was run: as §1

[1] = compound: CNC(=O)C1=CC=CC=C1NC2=NC(=NC=C2Cl)NC3=C(C=C(C=C3)N4CCOCC4)OC
How it was run: as §1

defactinib = compound: CNC(=O)c1ccc(Nc2ncc(C(F)(F)F)c(NCc3nccnc3N(C)S(C)(=O)=O)n2)cc1 [defactinib]
How it was run: as §1

[2] = compound: CNc1nc(-c2ccc3c(N)n[nH]c3c2)cc(N2C[C@@H](C(=O)NC3CCCCC3)CC[C@H]2C)n1
How it was run: as §1

encorafenib = compound: COC(=O)N[C@@H](C)CNc1nccc(-c2cn(C(C)C)nc2-c2cc(Cl)cc(NS(C)(=O)=O)c2F)n1 [encorafenib]
How it was run: as §1

[3] = compound: COC(=O)[C@H](CCSC)NC(=O)C1=C(C=C(C=C1)NC[C@H](CS)N)C2=CC=CC=C2
How it was run: as §1

alisertib = compound: COc1cc(Nc2ncc3c(n2)-c2ccc(Cl)cc2C(c2c(F)cccc2OC)=NC3)ccc1C(=O)O [alisertib]
How it was run: as §1

[4] = compound: COc1cc2nc(-c3cc(F)ccc3O)nc(N[C@@H]3CNC[C@H]3C(C)(C)O)c2cc1OC
How it was run: as §1

gefitinib = compound: COc1cc2ncnc(Nc3ccc(F)c(Cl)c3)c2cc1OCCCN1CCOCC1 [gefitinib]
How it was run: as §1

Measured: log2 fold change

RHOG (UniProt P84095)
inactive: alvocidib 0.048 | Tubastatin A 0.016 | [1] -0.006 | defactinib 0.03 | [2] 0.065 | encorafenib -0.011 | [3] -0.068 | alisertib 0.007 | [4] 0.052 | gefitinib -0.063

RMND5A (UniProt Q9H871)
inactive: alvocidib -0.022 | Tubastatin A -0.038 | [1] 0.034 | defactinib 0.042 | [2] 0.003 | encorafenib 0.054 | [3] 0.015 | alisertib -0.008 | [4] 0.007 | gefitinib -0.001

RPAP2 (UniProt Q8IXW5)
inactive: alvocidib 0.007 | Tubastatin A -0.027 | [1] -0.007 | defactinib 0.03 | [2] -0.041 | encorafenib 0.007 | [3] 0.014 | alisertib 0.005 | [4] 0.012 | gefitinib 0.047

RPL22 (UniProt P35268)
inactive: alvocidib -0.016 | Tubastatin A 0.045 | [1] -0.026 | defactinib -0.044 | [2] 0.038 | encorafenib -0.007 | [3] 0.004 | alisertib 0.023 | [4] 0.003 | gefitinib -0.022

RIOX1 (UniProt Q9H6W3)
inactive: alvocidib 0.057 | Tubastatin A -0.097 | [1] 0.035 | defactinib 0.013 | [2] 0.033 | encorafenib 0.011 | [3] 0.11 | alisertib 0.151 | [4] 0.008 | gefitinib 0.11

RPL26 (UniProt P61254)
inactive: alvocidib 0.22 | Tubastatin A 0.067 | [1] -0.001 | defactinib 0.08 | [2] 0.144 | encorafenib -0.051 | [3] 0.096 | alisertib -0.218 | [4] -0.04 | gefitinib -0.292

RNGTT (UniProt O60942)
inactive: alvocidib 0.003 | Tubastatin A -0.061 | [1] 0.003 | defactinib 0.02 | [2] -0.032 | encorafenib 0.064 | [3] 0.098 | alisertib -0.002 | [4] -0.035 | gefitinib -0.018

RNH1 (UniProt P13489)
inactive: alvocidib -0.072 | Tubastatin A 0.037 | [1] -0.033 | defactinib -0.026 | [2] 0.002 | encorafenib -0.009 | [3] 0 | alisertib 0.006 | [4] 0.013 | gefitinib -0.09

RPL13 (UniProt P26373)
inactive: alvocidib -0.038 | Tubastatin A 0.035 | [1] -0.036 | defactinib 0.006 | [2] 0.008 | encorafenib -0.009 | [3] 0 | alisertib 0.028 | [4] -0.019 | gefitinib -0.038

RPL15 (UniProt P61313)
inactive: alvocidib 0.034 | Tubastatin A -0.015 | [1] -0.007 | defactinib 0.018 | [2] -0.058 | encorafenib 0.011 | [3] -0.048 | alisertib 0.011 | [4] -0.005 | gefitinib 0.002

RINT1 (UniProt Q6NUQ1)
inactive: alvocidib 0.041 | Tubastatin A -0.083 | [1] 0.011 | defactinib 0.047 | [2] -0.072 | encorafenib 0.01 | [3] -0.017 | alisertib -0.086 | [4] 0.065 | gefitinib 0.035

RNF34 isoform 2 (UniProt Q969K3)
inactive: alvocidib -0.027 | Tubastatin A 0.048 | [1] 0.044 | defactinib 0.038 | [2] 0.119 | encorafenib 0.136 | [3] -0.098 | alisertib 0.024 | [4] 0.071 | gefitinib -0.048

RNFT1 (UniProt Q5M7Z0)
inactive: alvocidib 0.06 | Tubastatin A 0.037 | [1] -0.098 | [2] 0.036 | encorafenib 0.162 | [3] -0.172 | alisertib -0.208 | gefitinib -0.319

RNF2 (UniProt Q99496)
inactive: alvocidib 0.359 | Tubastatin A -0.008 | [1] 0.067 | defactinib 0.034 | [2] 0.018 | encorafenib 0.054 | [3] -0.076 | alisertib -0.125 | gefitinib -0.038

RHOU (UniProt Q7L0Q8)
inactive: alvocidib 0.007 | Tubastatin A 0.005 | [1] -0.036 | defactinib -0.073 | [2] -0.17 | encorafenib -0.088 | [3] 0.164 | alisertib -0.014 | [4] 0.024 | gefitinib -0.017

RNF214 (UniProt Q8ND24)
inactive: alvocidib -0.037 | Tubastatin A -0.013 | [1] -0.012 | defactinib 0.021 | [2] 0.009 | encorafenib 0.033 | [3] -0.077 | alisertib 0.001 | [4] 0.02 | gefitinib 0.022

RHOT1 isoform 3 (UniProt Q8IXI2)
inactive: alvocidib -0.079 | Tubastatin A 0.013 | [1] -0.018 | defactinib 0.018 | [2] -0.003 | encorafenib -0.019 | [3] 0.001 | alisertib 0.028 | [4] -0.01 | gefitinib 0.083

RPAP1 (UniProt Q9BWH6)
inactive: alvocidib -0.001 | Tubastatin A -0.077 | [1] 0.016 | defactinib -0.006 | [2] 0.007 | encorafenib 0.019 | [3] -0.069 | alisertib 0.013 | [4] 0.027 | gefitinib -0.007

RNF187 (UniProt Q5TA31)
inactive: alvocidib -0.028 | Tubastatin A 0.061 | [1] 0.071 | defactinib -0.073 | [2] 0.022 | encorafenib 0.131 | [3] -0.057 | alisertib -0.013 | gefitinib 0.009

RNMT isoform 2 (UniProt O43148)
inactive: alvocidib -0.036 | Tubastatin A -0.015 | [1] -0.004 | defactinib 0 | [2] -0.027 | encorafenib 0.007 | [3] 0.061 | alisertib -0.01 | [4] 0.001 | gefitinib -0.026

RILPL1 (UniProt Q5EBL4)
inactive: alvocidib 0.003 | Tubastatin A 0.022 | [1] 0.038 | defactinib -0.046 | [2] 0.019 | encorafenib 0.029 | [3] -0.039 | alisertib 0.028 | [4] -0.001 | gefitinib 0.018

RNF220 (UniProt Q5VTB9)
inactive: alvocidib -0.007 | Tubastatin A 0.013 | [1] -0.012 | defactinib 0.029 | [2] 0.068 | encorafenib 0.015 | [3] -0.05 | alisertib -0.001 | [4] 0.006 | gefitinib -0.118

RIDA (UniProt P52758)
inactive: alvocidib 0.022 | Tubastatin A -0.009 | [1] 0.032 | defactinib 0.02 | [2] -0.021 | encorafenib -0.027 | [3] -0.044 | alisertib -0.063 | [4] -0.012 | gefitinib -0.045

RNF20 (UniProt Q5VTR2)
inactive: alvocidib -0.005 | Tubastatin A 0.014 | [1] -0.003 | defactinib -0.013 | [2] -0.011 | encorafenib 0.008 | [3] -0.079 | alisertib -0.004 | [4] 0.017 | gefitinib 0.033

RPL36A (UniProt P83881)
inactive: alvocidib -0.033 | Tubastatin A 0.03 | [1] -0.035 | defactinib 0.031 | [2] 0.027 | encorafenib 0.098 | [3] 0.055 | alisertib 0 | [4] 0.024 | gefitinib -0.027

RPL31 (UniProt P62899)
inactive: alvocidib -0.013 | Tubastatin A 0.032 | [1] -0.042 | defactinib -0.024 | [2] 0.044 | encorafenib -0.016 | [3] 0.035 | alisertib 0.033 | [4] -0.015 | gefitinib -0.035

RICTOR isoform 3 (UniProt Q6R327)
inactive: alvocidib 0.141 | Tubastatin A -0.197 | [1] 0.061 | defactinib 0.284 | [2] 0.141 | encorafenib 0.044 | [3] -0.014 | alisertib -0.033 | [4] 0.068 | gefitinib -0.001

RIC8A (UniProt Q9NPQ8)
inactive: alvocidib 0 | Tubastatin A -0.092 | [1] 0.009 | defactinib 0.058 | [2] -0.033 | encorafenib 0.04 | [3] 0.023 | alisertib -0.008 | [4] -0.016 | gefitinib 0.024

Two neighbouring entries from above, for reference:
RPL36A (UniProt P83881)
inactive: alvocidib -0.033 | Tubastatin A 0.03 | [1] -0.035 | defactinib 0.031 | [2] 0.027 | encorafenib 0.098 | [3] 0.055 | alisertib 0 | [4] 0.024 | gefitinib -0.027

RPL31 (UniProt P62899)
inactive: alvocidib -0.013 | Tubastatin A 0.032 | [1] -0.042 | defactinib -0.024 | [2] 0.044 | encorafenib -0.016 | [3] 0.035 | alisertib 0.033 | [4] -0.015 | gefitinib -0.035

(next part)

RPL24 (UniProt P83731)
inactive: alvocidib 0.01 | Tubastatin A 0.031 | [1] -0.015 | defactinib -0.001 | [2] 0.021 | encorafenib -0.006 | [3] -0.009 | alisertib -0.003 | [4] -0.001 | gefitinib -0.015
